In test [1] the target is T1, apo-Tat-RhB (Tat Lai labeled at its N-terminus by rhodamine B, without zinc) (HIV-1 Lai strain).
T1 chain: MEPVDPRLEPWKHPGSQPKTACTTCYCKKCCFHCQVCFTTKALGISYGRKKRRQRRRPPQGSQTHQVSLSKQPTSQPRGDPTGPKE
The experiment in a line: fluorescence correlation spectroscopy (FCS); two-photon FCS; 1 μM Tat-RhB in 50 mM Hepes, 0.05% IGEPAL, pH7.5, 20°C; diffusion constant and brightness; both purified. Particulars: remark: other sources report otherwise.

In test [2] the target is T2, holo-Tat-RhB (Tat Lai labeled at its N-terminus by rhodamine B, with zinc) (HIV-1 Lai strain).
T2 chain: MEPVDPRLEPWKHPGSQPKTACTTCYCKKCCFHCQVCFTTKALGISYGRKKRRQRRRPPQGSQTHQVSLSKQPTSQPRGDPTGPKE
The test is described as above. The following applies: remark: other sources report otherwise.

Results are given in words; binding and its absence hold for the method and conditions named.

B1: apo-Tat-RhB (Tat Lai labeled at its N-terminus by rhodamine B, without zinc) (protein)
chain: MEPVDPRLEPWKHPGSQPKTACTTCYCKKCCFHCQVCFTTKALGISYGRKKRRQRRRPPQGSQTHQVSLSKQPTSQPRGDPTGPKE
modifications: here or on the partner: rhodamine B on the N-terminus; rhodamine B on the N-terminus
B1: the binding result in test [1] is “no binding (tested: 1 μM)”.

B2: holo-Tat-RhB (Tat Lai labeled at its N-terminus by rhodamine B, with zinc) (protein)
chain: MEPVDPRLEPWKHPGSQPKTACTTCYCKKCCFHCQVCFTTKALGISYGRKKRRQRRRPPQGSQTHQVSLSKQPTSQPRGDPTGPKE
modifications: here or on the partner: rhodamine B on the N-terminus; zinc bound; rhodamine B on the N-terminus; zinc bound
On to B2, for which the binding entry in test [2] is “no binding (tested: 1 μM)”.

Source of the values: paper PMC2483996.
